PubChem BioAssay AID1259415 (National Center for Advancing Translational Sciences (NCATS), 2018)
Several values for one entry are separate records, joined by “and”; a condition that tells them apart may be missing. Equal values may be shown once. Out of some 410,000 compounds screened, about 18,000 (4.4%) were called active. The shares of active, inactive and inconclusive entries below differ from those in the screen. Rule as the data show it: active = activity change below about -60%; inconclusive = no clear call, values can overlap the other calls; inactive = above about -39%. Where a SMILES comes first, the peptide text is derived from it. The star is where a group is joined. Cbz = O=C(OCc1ccccc1)*

assay: qHTS Assay for inhibitors of the human cytomegalovirus (HCMV); conditions: HFF cells, HCMV-luciferase reporter, 72 h; at 57.5 µM; hits give low values
In short: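 Screen run at 2 compound doses on HFFs infected with reporter HCMV, MOI 1 PFU/cell. Luciferase activity from cell lysates at 72 h post infection gave inhibition relative to buffer-only and Salinomycin wells.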
% is scaled to controls: 0 for no effect and ±100 for the full control effect.

| SMILES | activity change, negative = inhibition |
| --- | --- |
| CCCNC(=O)c1ccc(-n2c(-c3ccccc3)cc3c2CCCCC3)cc1 | active: -87.1% |
| CCC(C)[C@H]1CNCCN1CCc1cc(C(F)(F)F)cc(C(F)(F)F)c1 (stereo not given in full) | inconclusive: -40.6% |
| O=C(Nc1nnc(C2CC2)s1)C1Cc2ccccc2CN1S(=O)(=O)c1ccccc1F (stereo not given) | inactive: -6.29% |
| CCOC(=O)/C=C/C(=O)Nc1ccc(S(=O)(=O)N2CCCCCC2)cc1 | inactive: 65.2% |
| CCCOC(=O)c1ccc(Oc2c(-c3ccc(O)cc3O)n[nH]c2C)cc1 | active: -76.8% |
| CN(CCOc1ccc(Br)cc1)CC(O)COc1ccc(C#N)cc1 (stereo not given) | inconclusive: -49.5% |
| COc1ccc(CCNC(=O)CN2C(=O)COc3ccc(S(=O)(=O)N4CCOCC4)cc32)c(OC)c1 | inconclusive: -49.4% |
| O=C(Nc1cc(S(=O)(=O)N2CCOCC2)ccc1N1CCOCC1)c1cccs1 | inactive: 3.21% |
| C=CCc1cccc(/C=N/NC(=O)CCC(=O)Nc2ccc(F)cc2)c1O | active: -84% |
| Cc1nn(C)c(Cl)c1CN1CCCC(CCC(=O)NCc2ccccc2F)C1 (stereo not given) | inconclusive: -43.1% |
| Cc1cc(=O)oc2c3c(ccc12)OC/C3=N/N | inconclusive: -43.9% |
| CCN(CC(=O)Nc1cc(Cl)ccc1C)C(=O)COc1ccccc1F | inactive: -14.9% |
| CCOC(=O)COc1ccc(S(=O)(=O)NCc2ccncc2)cc1 | inactive: -18.9% |
| CCOC(=O)c1c(NC(C)=O)sc2c(OCC(O)CNC(C)(C)C)c(Br)ccc12 (stereo not given) | active: -84.9% |
| COc1ccc(C(=O)c2c(N)sc3c2CCN(C)C3)cc1 | inconclusive: -45.5% |
| Cc1ccc(CN2C(=O)CCC2C(=O)N2CCN(c3ccc(F)cc3)CC2)cc1 (stereo not given) | inconclusive: -43.1% |
| FC(F)(F)Oc1ccc(NC(=S)Nc2ccccc2N2CCOCC2)cc1 | inconclusive: -44.2% |
| CSCCC(NC(=O)c1ccccc1Br)C(=O)NNC(=O)c1cc(C)oc1C (stereo not given) | active: -62.8% |
| O=C(CSC(=S)N1CCOCC1)Nc1nc(-c2ccccc2)c(-c2ccccc2)o1 | inactive: -8.39% |
| COc1cccc(C2=CC(=O)CC(C)(C)C2)c1 | inconclusive: -54% |
| CC(=O)Nc1cc(-c2ccccc2)cn2c(-c3ccc(F)cc3)cnc12 | inconclusive: -52.9% |
| COc1cccc(/C=N/Nc2ncnc3c2[nH]c2ccc(C)cc23)c1OC | inactive: 33.2% |

| SMILES | activity change, negative = inhibition |
| --- | --- |
| Cc1ccc(Cn2ncc3c(N4CCN(c5ccc(C)cc5)CC4)ncnc32)cc1 | inconclusive: -57.5% |
| O=C1NC[C@@H](CCCCN2CCN(CCc3ccc(O)cc3)C(=O)C2=O)N(Cc2ccccc2)C1=O | inactive: -36% |
| Cc1ccc(S(=O)(=O)N2CCCCC2)cc1C(=O)c1nccn1C | inactive: -6.09% |
| Cc1ccc(S(=O)(=O)N2CCC(C(=O)OCC(=O)Nc3cc(S(C)(=O)=O)ccc3Cl)CC2)cc1C | inconclusive: -55.3% |
| Cc1ccc2nc(N/N=C/c3ccccc3C#N)nc(-c3ccccc3)c2c1 | inconclusive: -48.4% |
| CCCCOc1ccc(C(=O)Nc2ccc(S(=O)(=O)Nc3cc(C)on3)cc2)cc1OC | inconclusive: -40.6% |
| O=Cc1cn(Cc2ccccc2F)c2ccccc12 | active: -91.5% |
| CC(C)C(NC(=O)OCc1ccccc1)C(=O)NC(Cc1ccc(O)cc1)C(=O)O (stereo not drawn) (Cbz-Val-Tyr-OH; configuration not given here) | inconclusive: -49.7% |
| O=C(Nc1ccc(Oc2ccccc2)cc1)c1ccc(Cn2c(=O)[nH]c3ccsc3c2=O)cc1 | inactive: -12.5% |
| CCN(c1ccccc1)S(=O)(=O)c1cccc(C(=O)NCC(c2ccco2)N2CCCCC2)c1 (stereo not given) | active: -71.4% |
| O=C(COC(=O)CCOc1ccccc1)NCc1ccco1 | inactive: -12.1% |
| COCCCNC(=O)COc1ccc(S(=O)(=O)Nc2ccccc2)cc1 | inconclusive: -40.4% |
| Cc1ccc(NC(=O)C(NS(=O)(=O)c2ccc3c(c2)CCC(=O)N3)c2ccccc2)cc1C (stereo not given) | inactive: 55.3% |
| COc1ccc(N(C)C(=O)c2onc3c2CCCC3)cc1 | inconclusive: -41.5% |
| O=C1CS/C(=N/N=C/c2ccncc2)N1 | inactive: 7.22% |
| COC(=O)C1=C(C)N(Cc2ccccc2)C(=S)N[C@H]1c1cccc(F)c1 | inconclusive: -59.4% |
| Cc1ccc(Cl)cc1NC(=O)Nc1cccs1 | inconclusive: -51.4% |
| Cc1ccc(CNS(=O)(=O)c2ccc3c(c2)n(C)c(=O)n3C)cc1 | active: -66% |
| CN(C(=O)COC(=O)/C=C/c1cn(-c2ccccc2)nc1-c1ccc2c(c1)OCCO2)C1CCS(=O)(=O)C1 (stereo not given) | inactive: -26.8% |
| CCCN(CCC)C(=O)c1cc([N+](=O)[O-])cc2c1-c1ccc([N+](=O)[O-])cc1C2=C(C#N)C#N | inconclusive: -43.9% |
| O=C(NC1CCCC1)c1ccc(Cl)s1 | active: -76.6% |
| COCOc1cccc(CN2CCC2(C)C(=O)Nc2ccc3c(c2)OCO3)c1 (stereo not given) | inconclusive: -49.9% |

| SMILES | activity change, negative = inhibition |
| --- | --- |
| O=S(=O)(NCCc1csc(-c2cccnc2)n1)c1ccc2c(c1)OCCO2 | inconclusive: -41.7% |
| CC(C)(C)c1ccc2c(c1)OC(C(=O)N/N=C/c1ccc([N+](=O)[O-])o1)CO2 (stereo not given) | inactive: -6.38% |
| Cc1ccc(-n2c(N)c(C(=O)Nc3ccccc3F)sc2=S)cc1C | inconclusive: -57.3% |
| COc1ccc(NC(=O)CC2(Cc3ccccc3)CCOC(C)(C)C2)cc1 (stereo not given) | inconclusive: -43.2% |
| Cc1cc([N+](=O)[O-])ccc1NC1CCCC1 | active: -71.6% |
| COc1cccc(C(=O)OCC(=O)c2ccc(S(=O)(=O)N3CCCCC3)cc2)c1OC | active: -99.6% |
| Cc1cc2cc(CN(CCN(C)C)C(=S)NCc3ccco3)c(=O)[nH]c2cc1C | inconclusive: -44.9% |
| CCN(CC)C(=O)CSc1nc(-c2cccs2)cc(-c2cccs2)c1C#N | inconclusive: -49.3% |
| COc1cccc(NC(=O)C(=O)N/N=C/c2cc(C)n(-c3ccc(Cl)c(Cl)c3)c2C)c1 | inconclusive: -45.7% |
| CCCCCCCCCC(=O)Nn1cnc2ccccc2c1=O | inconclusive: -45.3% |
| Cc1nn(-c2ccccc2)c(C)c1/C=N/n1c(-c2ccc(Cl)cc2)n[nH]c1=S | inconclusive: -55.2% |
| COc1ccc2[nH]c(CN3CCC(CO)(CCOc4ccccc4)CC3)c(C)c2c1 | inconclusive: -40.4% |
| COc1ccc(Nc2ccc(S(=O)(=O)N3CCCCCC3)cc2[N+](=O)[O-])cc1 | inconclusive: -40.5% |
| O=C1/C(=C/c2ccncc2)SC(=S)N1C1CCS(=O)(=O)C1 (stereo not given) | inconclusive: -40.8% |
| COc1ccccc1NC(=O)CN1C(=O)COc2ccc(S(=O)(=O)N3CCOCC3)cc21 | inconclusive: -44.4% |
| NC(=O)c1nc(Nc2ccccc2)sc1NC(=O)c1ccccc1Br | inactive: -13.5% |
| COc1ccc(C=O)cc1OC1C=CCCC1 (stereo not given) | inactive: 46.1% |
| Cc1ccc(Cc2cnc(NC(=O)/C(C#N)=C/c3ccc(-c4cccc([N+](=O)[O-])c4)o3)s2)cc1 | active: -61.6% |
| Cc1[nH]n(-c2ccc(Br)cc2)c(=O)c1/C=N/NC(=O)c1ccccc1 | active: -98.3% |
| COc1cc(/C=C(\C#N)c2ccccn2)ccc1OCc1ccc(Cl)cc1 | inactive: -22.5% |
| COc1ccc(/C=N/NC(=O)c2ccc(-c3ccccc3)cc2)cc1O | active: -60.2% |
| CCN(C(=O)CSc1nnc(-c2ccccc2F)n1N)c1c(N)n(Cc2ccccc2)c(=O)[nH]c1=O | inactive: 0% |

Laid out differently: entries from further up
SMILES | activity change, negative = inhibition
O=S(=O)(NCCc1csc(-c2cccnc2)n1)c1ccc2c(c1)OCCO2 | inconclusive: -41.7%
COc1ccc(NC(=O)CC2(Cc3ccccc3)CCOC(C)(C)C2)cc1 (stereo not given) | inconclusive: -43.2%
NC(=O)c1nc(Nc2ccccc2)sc1NC(=O)c1ccccc1Br | inactive: -13.5%
COc1ccc(/C=N/NC(=O)c2ccc(-c3ccccc3)cc2)cc1O | active: -60.2%

More results.

| SMILES | activity change, negative = inhibition |
| --- | --- |
| CC(C)(C)C1CCc2onc(C(=O)Nc3cccnc3)c2C1 (stereo not given) | inactive: -31.2% |
| CCC(=O)N1CCc2cc(Br)cc(S(=O)(=O)CCC(=O)N3CCN(c4ccccc4F)CC3)c21 | inactive: 3.63% |
| N#Cc1ccccc1 | inactive: 4.98% |
| CCOC(=O)N1CCC(=NNS(=O)(=O)c2cccc([N+](=O)[O-])c2)CC1 | inconclusive: -46.5% |
| Cn1c(CN2CCCCC2)nc2cc(NC(=O)c3ccccc3Cl)ccc21 | inconclusive: -49.8% and inconclusive: -41.9% |
| O=C(Nc1ncc(Cc2ccc(C(F)(F)F)cc2)s1)c1ccc(-c2cccc([N+](=O)[O-])c2)o1 | inconclusive: -53.6% |
| O=C(COC(=O)CNC(=O)c1ccco1)Nc1ncc(Cl)cc1Cl | active: -100% |
| Cc1ccc(C(=O)N2CCN(c3ccc(NC(=O)c4ccc(Br)o4)cc3)CC2)cc1 | inconclusive: -48.9% |
| Cc1ccc(OCC(=O)Nc2ccc3nc(SCC(=O)N4CCOCC4)sc3c2)cc1 | inactive: -29.3% |
| CCOc1ccc(Cl)cc1-c1cc(C(=O)Nc2ccc(Br)cc2)[nH]n1 | inactive: -36.2% |
| Cc1nnn(C23C[C@@H]4C[C@@H](CC(C(=O)N5CCN(c6ccccc6)CC5)(C4)C2)C3)n1 | active: -86.8% |
| CC(=O)Nc1ccc(NC(=O)CC(C)n2ccnc2)cc1 (stereo not given) | inconclusive: -42.3% |
| Cc1ccc(C)c(S(=O)(=O)N2CCN(C(=O)c3cc(-c4cccs4)nn3-c3ccccc3)CC2)c1 | inconclusive: -45.5% |
| O=C(N/N=C/c1cccnc1)c1[nH]ncc1Br | inactive: 52.5% |
| Cc1nnc(NC(=O)CSc2nnc(C)n2-c2ccc(F)cc2)s1 | inconclusive: -40.2% |
| Clc1ccc(C(c2ccccc2)c2c[nH]c3ccccc23)s1 (stereo not given) | active: -66.6% |
| COc1cccc(C(=O)Nc2nnc(S(=O)(=O)N(C)c3ccccc3)s2)c1 | inconclusive: -51.8% |
| C=CCSc1nccc(-c2cc(Cl)sc2Cl)n1 | inconclusive: -48.8% |
| CCn1cc(C(=O)NCCCN2CCCC(C)C2)c(=O)c2cc(S(=O)(=O)N3CCc4ccccc4C3)ccc21 (stereo not given) | active: -73.7% |

Individual results from the results shown.
Under activity change, negative = inhibition, CC(=O)Nc1ccc(NC(=O)CC(C)n2ccnc2)cc1 (stereo not given) has inconclusive: -42.3%
Under activity change, negative = inhibition, C=CCSc1nccc(-c2cc(Cl)sc2Cl)n1 has inconclusive: -48.8%
Under activity change, negative = inhibition, CCC(=O)N1CCc2cc(Br)cc(S(=O)(=O)CCC(=O)N3CCN(c4ccccc4F)CC3)c21 has inactive: 3.63%
